Experimental data: article PMC2483941
These are yes or no findings as the source states them, for the method shown. In cells and extracts the contact can be indirect. Some results given as binding are weak or reduced against the parent protein; the word gives no strength.

Protein sequences, listed by entry. Tags and fused reporters are not part of them. Residues count along the entry.
UniProt P14334, residues 20-183: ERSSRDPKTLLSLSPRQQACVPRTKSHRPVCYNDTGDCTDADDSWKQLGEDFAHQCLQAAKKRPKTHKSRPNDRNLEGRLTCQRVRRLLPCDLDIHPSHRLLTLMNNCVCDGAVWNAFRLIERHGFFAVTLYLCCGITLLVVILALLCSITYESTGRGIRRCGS
UniProt P08560, residues 19-368: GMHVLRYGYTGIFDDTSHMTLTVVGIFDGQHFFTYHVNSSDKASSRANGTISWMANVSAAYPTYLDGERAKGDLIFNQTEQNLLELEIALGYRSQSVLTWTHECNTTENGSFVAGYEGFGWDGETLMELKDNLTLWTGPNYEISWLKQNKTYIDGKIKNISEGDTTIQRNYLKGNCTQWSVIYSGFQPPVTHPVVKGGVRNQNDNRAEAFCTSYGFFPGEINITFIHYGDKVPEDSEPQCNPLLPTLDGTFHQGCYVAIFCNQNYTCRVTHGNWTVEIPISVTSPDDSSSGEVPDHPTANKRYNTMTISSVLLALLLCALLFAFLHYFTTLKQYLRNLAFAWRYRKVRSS

Assays:
[1] = molecular target: Human cytomegalovirus (HCMV) US6 glycoprotein (human cytomegalovirus (HCMV)) (UniProt P14334); experiment: co-IP; HeLa or HeLa-US6 cells infected with vvWT or vvUL18, lysed in 1% digitonin in PBS with protease inhibitors; antibody (anti-US6, anti-UL18 10C7, anti-MHC class I, anti-tapasin) 2 h at 4°C, Protein G-Sepharose, washed four times with 0.1% digitonin; immunoblot
[2] = molecular target: Human cytomegalovirus (HCMV) UL18, MHC class I homolog (human cytomegalovirus (HCMV)) (UniProt P08560); experiment: co-IP; […]; antibody ([…]) 2 h at 4°C, […]

TAP1 (from UniProt Q03518 1-748)
binding [1]: binds
binding [2]: binds
